Strings that start with PEPTIDE1 are HELM notation: dots part the residues, brackets hold end groups and non-standard residues.
Experiment: general procedure: Fmoc solid-phase peptide synthesis; 2-chloro-trityl resin; HBTU/HOBt/DIPEA
Conditions: whole synthesis, 214 nm

Final HPLC purity, >99%:
PEPTIDE1{[dF].C.F.[dW].[Lys(a)].T.C.[Thr-ol]}$PEPTIDE1,PEPTIDE1,2:R3-7:R3$$$V2.0
PEPTIDE1{[dF].C.F.[dW].[Lys(b)].T.C.[Thr-ol]}$PEPTIDE1,PEPTIDE1,2:R3-7:R3$$$V2.0
PEPTIDE1{[dF].C.F.[dW].[Lys(d)].T.C.[Thr-ol]}$PEPTIDE1,PEPTIDE1,2:R3-7:R3$$$V2.0

— patent EP4656654A1 (Qianhangjiang Pharmaceutical Co., Ltd., priority 2023, dated 2025)
